Source: PubChem BioAssay AID328 (DTP/NCI, 2004)
The list does not hold the whole screen: it is rich in T/C values a quarter to a half above the control, in often repeated tests (any T/C) and in doses without a T/C. Further doses and runs are listed elsewhere. T/C gives the treated animals as a percentage of the vehicle group. Some entries give survivors of the animals treated and no T/C: the source files T/C as zero there, which appears to mark a toxic dose or a test without result, not a measured value. Some survivor counts are full or nearly so, which does not show that the dose was tolerated: the source hardly ever lists a survival T/C far under the control, and the zero likely stands for such cases as well. Survivors were counted at the toxicity check, usually on the fifth day, unless a day is given; later deaths do not show. Schedule codes are those of the source, taken here to give the interval after Q, in days (D) or hours (H), and the number of doses after X. Some doses were run more than once; the results are listed from low to high. Where survival is the endpoint, the PubChem record calls one and a half times the control and up active, and a quarter to a half above the control has no call in these data; cut-offs in other NCI protocols can differ. Some T/C values carry the count of animals alive at the toxicity check (mostly the fifth day); where none is given, no animal had died by that day.

Tested on: BDF1 mice, P388 leukemia ip, median survival T/C
Assay: NCI In Vivo Anticancer Drug Screen. Data for tumor model P388 Leukemia (intraperitoneal) in B6D2F1 (BDF1) mice
Details: T/C endpoint: median survival time, higher T/C = longer survival
Outline: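 Survival ratio, drug arm over vehicle arm, in mice with a transplanted tumour.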

[1] = dose: 100.0 mg/kg/injection, schedule: Q04DX003 (ip), vehicle: saline
[2] = dose: 100.0 mg/kg/injection, schedule: Q01DX009 (ip), vehicle: saline with Tween-80
[3] = dose: 200.0 mg/kg/injection, schedule: Q01DX009 (ip), vehicle: saline with Tween-80
[4] = dose: 400.0 mg/kg/injection, schedule: Q01DX009 (ip), vehicle: saline with Tween-80
[5] = dose: 200.0 mg/kg/injection, schedule: Q04DX003 (ip), vehicle: saline
[6] = dose: 200.0 mg/kg/injection, schedule: Q01DX009 (ip), vehicle: saline

Nc1ccc2c(-c3ccc([N+](=O)[O-])cc3)cc(=O)[nH]c2n1
survivor count [1]: 6 of 6

Nc1nc(C=O)c(Cc2ccc(Br)cc2)c(=O)[nH]1
T/C [2]: 125 and 134 % of control
T/C (dose: 150.0 mg/kg/injection, schedule: Q01DX009 (ip), vehicle: saline with Tween-80): 132 % of control

Fc1ccc(P(c2ccc(F)cc2)c2ccc(F)cc2)cc1
survivor count (dose: 12.5 mg/kg/injection, schedule: Q01DX009 (ip), vehicle: Klucel (hydroxypropylcellulose) (HPC)): 6 of 6

NC(=O)Oc1cccc(OC(N)=O)c1
T/C (dose: 200.0 mg/kg/injection, schedule: Q04DX003 (ip), vehicle: water): 134 % of control

COc1ccc2c(c1)N(C(=O)N(CCOC(=O)Nc1ccccc1)CCOC(=O)Nc1ccccc1)c1ccccc1S2
survivor count [2]: 6 of 6

C=CCc1ccccc1CNC(C)(C)CO
survivor count [3]: 0 of 6

CC(CC(=N)N)NC(=O)C1CCC(N)=N1 (stereo not given)
survivor count (dose: 75.0 mg/kg/injection, schedule: Q01DX009 (ip), vehicle: saline): 6 of 6

O=CN1CCN(c2ccc([N+](=O)[O-])c3no[n+]([O-])c23)CC1
T/C (dose: 3.75 mg/kg/injection, schedule: Q01DX009 (ip), vehicle: saline with Tween-80): 135 % of control
T/C (dose: 7.5 mg/kg/injection, schedule: Q01DX009 (ip), vehicle: saline with Tween-80): 142 % of control
T/C (dose: 15.0 mg/kg/injection, schedule: Q01DX009 (ip), vehicle: saline with Tween-80): 129 % of control

CCCCNC(C)(C)C(=O)c1ccco1
survivor count (dose: 400.0 mg/kg/injection, schedule: Q04DX003 (ip), vehicle: saline with Tween-80): 1 of 6

CCC(=O)O[C@H]1CC[C@H]2[C@@H]3C[C@H](F)C4=CC(=O)CC[C@]4(C)[C@H]3CC[C@]12C
survivor count (dose: 100.0 mg/kg/injection, schedule: Q01DX009 (ip), vehicle: saline sonified): 6 of 6
survivor count (dose: 200.0 mg/kg/injection, schedule: Q01DX009 (ip), vehicle: saline sonified): 5 of 6

c1csc(CSc2ncnc3nc[nH]c23)c1
survivor count [4]: 4 of 6

OC(CBr)(c1ccccc1)c1ccccc1
survivor count (dose: 6.25 mg/kg/injection, schedule: Q04DX003 (ip), vehicle: saline with Tween-80): 6 of 6
survivor count (dose: 25.0 mg/kg/injection, schedule: Q04DX003 (ip), vehicle: saline with Tween-80): 6 of 6

CCN(CC)P(=O)(N1CC1)N1CC1
T/C (dose: 16.5 mg/kg/injection, schedule: Q04DX003 (ip), vehicle: saline): 140 % of control
survivor count (dose: 25.0 mg/kg/injection, schedule: Q04DX003 (ip), vehicle: saline): 6 of 6
survivor count (dose: 37.5 mg/kg/injection, schedule: Q04DX003 (ip), vehicle: saline): 3 of 6 and 6 of 6
survivor count [1]: 2 of 6
survivor count [5]: 0 of 6
survivor count (dose: 400.0 mg/kg/injection, schedule: Q04DX003 (ip), vehicle: saline): 0 of 6

CCOC(=O)C1=C(C)NC(C)=C(C(=O)OCC)C1c1ccc([N+](=O)[O-])s1
survivor count [3]: 6 of 6

CCC(=O)O[C@H]1CC(=O)N(C)c2cc(cc(OC)c2Cl)C/C(C)=C/C=C[C@@H](OC)[C@@]2(O)C[C@H](OC(=O)N2)[C@@H](C)[C@H]2O[C@@]12C
T/C (dose: 1.8 micrograms/kg/injection, schedule: Q01DX009 (ip), vehicle: saline + alcohol): 129 % of control
T/C (dose: 3.1 micrograms/kg/injection, schedule: Q01DX009 (ip), vehicle: saline + alcohol): 131 % of control
T/C (dose: 6.2 micrograms/kg/injection, schedule: Q01DX009 (ip), vehicle: saline + alcohol): 140 % of control
survivor count (dose: 100.0 micrograms/kg/injection, schedule: Q01DX009 (ip), vehicle: saline + alcohol): 4 of 4
survivor count (dose: 200.0 micrograms/kg/injection, schedule: Q01DX009 (ip), vehicle: saline + alcohol): 2 of 4

CCCCCC(O)CCCCC
survivor count [4]: 5 of 6

C[P+](Cc1ccc([N+](=O)[O-])cc1)(c1ccccc1)c1ccccc1
survivor count (dose: 0.78 mg/kg/injection, schedule: Q01DX009 (ip), vehicle: Klucel (hydroxypropylcellulose) (HPC)): 6 of 6
survivor count (dose: 3.12 mg/kg/injection, schedule: Q01DX009 (ip), vehicle: Klucel (hydroxypropylcellulose) (HPC)): 5 of 6
survivor count (dose: 6.25 mg/kg/injection, schedule: Q01DX009 (ip), vehicle: Klucel (hydroxypropylcellulose) (HPC)): 6 of 6
survivor count (dose: 25.0 mg/kg/injection, schedule: Q04DX003 (ip), vehicle: Klucel (hydroxypropylcellulose) (HPC)): 6 of 6

COc1cc2cc3c4cc(OC)c(OC)cc4cc[n+]3cc2cc1OC
T/C (dose: 20.0 mg/kg/injection, schedule: Q01DX009 (ip), vehicle: saline with Tween-80): 136 % of control
T/C (dose: 20.0 mg/kg/injection, schedule: Q04DX003 (ip), vehicle: saline): 129 % of control
T/C (dose: 40.0 mg/kg/injection, schedule: Q04DX003 (ip), vehicle: saline with Tween-80): 127 % of control
T/C (dose: 80.0 mg/kg/injection, schedule: Q01DX009 (ip), vehicle: saline with Tween-80): 127 % of control
T/C (dose: 80.0 mg/kg/injection, schedule: Q04DX003 (ip), vehicle: saline with Tween-80): 136 % of control

CC([NH-])C(=O)O.O=C(O)CN(CC(=O)O)CC(=O)O.[Co+2]
T/C (dose: 100.0 mg/kg/injection, schedule: Q01DX009 (ip), vehicle: saline): 104, 123 [5 of 6 alive], 125, 130 % of control
survivor count [6]: 3 of 6 and 6 of 6
survivor count (dose: 400.0 mg/kg/injection, schedule: Q01DX009 (ip), vehicle: saline): 1 of 6

Cc1ccccc1N=C(N)N=C(N)N
survivor count [6]: 0 of 6

CCN(CC)CCC(=O)c1ccccc1
survivor count [2]: 3 of 6
survivor count [3]: 0 of 6

O=NN(CCCl)C(=O)Nc1cc(NC(=O)N(CCCl)N=O)cc(C(=O)O)c1
T/C (dose: 0.12 mg/kg/injection, schedule: Q04DX003 (ip), vehicle: saline with Tween-80): 133 and 145 % of control
T/C (dose: 0.18 mg/kg/injection, schedule: Q04DX003 (ip), vehicle: saline with Tween-80): 136 % of control
T/C (dose: 0.25 mg/kg/injection, schedule: Q04DX003 (ip), vehicle: saline with Tween-80): 145 % of control
T/C (dose: 0.5 mg/kg/injection, schedule: Q04DX003 (ip), vehicle: saline with Tween-80): 145 % of control
T/C (dose: 13.0 mg/kg/injection, schedule: Q04DX003 (ip), vehicle: saline with Tween-80): 131 % of control
T/C (dose: 30.0 mg/kg/injection, schedule: Q04DX003 (ip), vehicle: saline with Tween-80): 140 % of control
survivor count (dose: 60.0 mg/kg/injection, schedule: Q04DX003 (ip), vehicle: saline with Tween-80): 6 of 6

Cc1cc(N(CCCl)CCCl)ccc1/C=N\Nc1nncn1N
T/C (dose: 15.0 mg/kg/injection, schedule: Q01DX009 (ip), vehicle: Klucel (hydroxypropylcellulose) (HPC)): 147 % of control
T/C (dose: 23.0 mg/kg/injection, schedule: Q01DX009 (ip), vehicle: Klucel (hydroxypropylcellulose) (HPC)): 142 % of control
T/C (dose: 65.0 mg/kg/injection, schedule: Q04DX003 (ip), vehicle: Klucel (hydroxypropylcellulose) (HPC)): 136 % of control
T/C [5]: 140 % of control
survivor count (dose: 400.0 mg/kg/injection, schedule: Q01DX009 (ip), vehicle: Klucel (hydroxypropylcellulose) (HPC)): 2 of 6

COc1cccc2c1C(=O)c1c(O)c3c(c(O)c1C2=O)CC(O)(/C(C)=N\NC(=O)N/N=C(\C)C1(O)Cc2c(O)c4c(c(O)c2C(OC2CC(N)C(O)C(C)O2)C1)C(=O)c1c(OC)cccc1C4=O)CC3OC1CC(N)C(O)C(C)O1 (stereo not given)
T/C (dose: 25.0 mg/kg/injection, schedule: Q04DX003 (ip), vehicle: water): 142 % of control

c1ccc(C2=C([P+](c3ccccc3)(c3ccccc3)c3ccccc3)CCN2)cc1
T/C (dose: 3.12 mg/kg/injection, schedule: Q01DX009 (ip), vehicle: saline with Tween-80): 135 % of control
T/C (dose: 6.25 mg/kg/injection, schedule: Q01DX009 (ip), vehicle: saline with Tween-80): 140 % of control
